From US20260072046A1 (priority 2015, published 2026)

Settings: human

In the case of CN1CC[C@]23c4c5ccc(O)c4O[C@H]2[C@@H](O)C=C[C@H]3[C@H]1C5 [morphine], the “concentration in oral fluid” value is reported as 118.97 ng/mL.
